# Screening data, single-dose tests

Measurements from “University of Dundee, Small-Polar-MMV Screening Library” (2021), ChEMBL document CHEMBL3988442.

Values are the deposited “Percent Effect”, in %.
The controls that fix the scale are not given in the record; negative values are as filed.
Compounds were drawn at random from those tested, without regard to their results.
Two or more numbers in one place are separate tests of the same structure; such repeats can differ widely.
A dash means the value is not listed here; it may have been measured.

T. brucei: 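Whole-parasite assay of Trypanosoma brucei over 72 hours; the read-out is not stated. Tested at 30 µM. The record gives no direction; compounds that gave an IC50 in retests scored well above the rest, so higher reads as stronger inhibition. Values scatter widely below zero; nearly all retest evidence comes from the higher of the two concentrations used. Of about 64,000 compounds tested this way, about 940 (1.5%) reached 50% or more in at least one test.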
Toxoplasma: 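Assay of Toxoplasma gondii numbers, read through their beta-galactosidase reporter with a colour substrate. Tested at 10 µM. The record gives no direction; the compounds picked for IC50 retests had high values, so higher reads as fewer parasites. Of about 67,000 compounds tested this way, about 260 (0.38%) reached 50% or more in at least one test.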
Leishmania in macrophages: 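Cell assay of Leishmania donovani living inside macrophages; the read-out is not stated. Tested at 30 µM. Direction is inferred from retests: higher values go with stronger inhibition. Size under these conditions: about 69,000 compounds, about 1,000 of them at 50% or above in at least one test.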

| compound | T. brucei | Toxoplasma | Leishmania in macrophages |
|---|---|---|---|
| `COc1cc(O)ccc1CN1CCN(C2CCc3ccccc3C2)CC1` (stereo not given) | 8.247 | -14.6 | 43.33 |
| `O=C(NCC1=CCCCC1)C(c1cccnc1)N1CCOCC1` (stereo not given) | -21.61 | -6.204 | 6.641 |
| `Cc1ncc2c(n1)CN(Cc1nnc(-c3ccccc3)o1)CC2` | - | 0.4253 | 15.47 |
| `Cc1cnn(CC(C)Nc2nc3ccccc3o2)c1` (stereo not given) | -40.93 | 8.892 | 17.89 |
| `Cc1cn2c(n1)CCC(NC(=O)CCn1ccnn1)C2` (stereo not given) | -25.47 | 1.193 | 8.609 |
| `O=C(Cn1cccc1)NCC1CCN(Cc2cc3ccccc3[nH]2)C1` (stereo not given) | -36.83 | 5.937 | 30.37 & 40.91 |
| `CN(C)C1Cc2ccccc2N(S(=O)(=O)c2cccc(C#N)c2)C1` (stereo not given) | -19.2 | 9.3 | 26.9 |
| `O=C1CC2(CCN(S(=O)(=O)c3cccs3)C2)CN1c1cccc(F)c1` (stereo not given) | 1.504 | 12.83 | -3.398 |
| `Cn1cc(C(=O)Nc2cccc(CCN3CCCC3)c2)ccc1=O` | -37.05 | -2.083 | 25.83 |
| `O=C(O)C(F)(F)F.O=C(O)C(F)(F)F.[H][C@@]12CCN(Cc3cc(C)on3)C[C@]1([H])OCCN(c1ccc(C)nc1)C2=O` | -17.34 | -16.09 | -15.14 |
| `O=C(O)C(F)(F)F.[H][C@@]12CCN(c3ncccn3)C[C@]1([H])[C@H](C(=O)NCc1ccco1)CCO2` | -34.45 | -2.059 | 12.13 |
| `O=C(CNC1CCc2ncnn2C1)N(Cc1cccs1)C1CC1` (stereo not given) | -58.49 | 11.1 | 3.372 |
| `CC(C)Cc1cc(CNC(=O)C2CCCN(C(=O)N(C)C)C2)no1` (stereo not given) | -8.903 | 3.35 | 11.8 |
| `CNC[C@H]1CC[C@H](c2cc(CN(C)S(=O)(=O)N(C)C)n(C)n2)CC1.Cl` | 5.564 | -2.314 | 29.88 |
| `c1ccc(C(NCc2nnc(-c3ccco3)o2)C2CCC2)cc1` (stereo not given) | -14.94 | -1.871 | 10.24 |
| `CCCNC(=O)c1sccc1N(C)S(=O)(=O)c1ccc(Cl)cc1` | -39.02 | 0.4525 | 20.91 |
| `O=C(CCc1cc2n(n1)CCCN(C(=O)c1ccccn1)C2)NC1CC1` | -12.86 | -8.433 | -0.8186 |
| `CC(=O)NCCNC(=O)CN1CCCC(Cn2cncn2)C1` (stereo not given) | 11.82 | 13.48 | 17.28 |
| `CC(C)CNC(=O)c1ccc(NC(=O)NCC2CC2)cc1Cl` | -30.64 | 0.911 | 17.14 |
| `CO[C@@H]1CO[C@@]2(CCCN(Cc3nc(C)cs3)C2)C1.O=C(O)C(F)(F)F` | -18.96 | 8.455 | 100.6 |
| `COc1ccccc1C1(O)CCCN(C(=O)c2cnc(SC)nc2)C1` (stereo not given) | - | - | 21.61 |
| `COc1ccc(-n2ncc(C(C)NC3Cc4ccccc4C3)c2C)cc1` (stereo not given) | -15.04 | 15.24 | 17.62 |
| `Cc1cc(Cn2cc(C#N)c(=O)c3ccccc32)no1` | -58.44 | 4.402 | -8.592 |
| `Cc1cc(Br)oc1C(=O)N1CCN(CC(N)=O)CC1` | -40.01 | -14.61 | 2.259 |
| `CN(CCNS(C)(=O)=O)C(=O)c1ccc(Cl)c(Cl)c1` | - | 1.815 | 18.79 |
| `CCn1ncc2c1C(COCC1CC1)N(Cc1ccccn1)CC2.O=C(O)C(F)(F)F.O=C(O)C(F)(F)F` (stereo not given) | - | -11.66 | 7.622 |
| `CCN(Cc1nc(COC)no1)C(=O)CCNC(=O)c1ccccc1F` | -49.34 | -14.58 | -5.698 |
| `COc1nn(C)c2c1CCCN(C(=O)c1cccc(C)n1)C2.O=C(O)C(F)(F)F` | -84.98 | -26.72 | 4.327 |
| `Cn1cc(CN(C(=O)C2COc3ccccc3C2)C2CC2)cn1` (stereo not given) | 9.538 | 1.441 | 32.28 |
| `NC(=O)C1CN(Cc2c[nH]cn2)CCN(C2CCOCC2)C1` (stereo not given) | -11.03 | 2.755 | -5.467 |
| `COc1cccc(OCC2CCCN(C(=O)c3ncoc3C3CC3)C2)c1` (stereo not given) | -22.33 | 20.78 | 23.37 |
| `CN(Cc1ccco1)C(=O)NCC(c1cccs1)N(C)C` (stereo not given) | -20.58 | 8.117 | 6.229 |
| `CCCc1nc(CN(CC)C(=O)c2ccc3[nH]cnc3c2)no1` | 20.03 | 1.401 | 10.83 |
| `Cn1ccnc1C1c2nc[nH]c2CCN1Cc1cccnc1` (stereo not given) | -11.44 | 5.861 | 23.44 |
| `O=C(O)C(F)(F)F.[H][C@@]12OCCN(C(=O)C3=CCCC3)[C@@]1([H])CC[C@@H]2Oc1ccccn1` | 21.55 | 0.4992 | 4.63 |
| `CCSCCNc1nc2c(s1)c(C)nn2C` | -4.314 | -2.185 | 16.96 |
| `O=C(O)C(F)(F)F.O=C(O)C(F)(F)F.[H][C@@]12OCCN(Cc3c(C)noc3C)[C@@]1([H])CC[C@H]2Oc1ccccn1` | -5.061 | -3.662 | -10.15 |
| `COc1cccc(C2CCCN2C(=O)c2cc3c(nc2OC)CCC3)c1` (stereo not given) | 5.269 | 0.2887 | 16.06 |

The last 3 entries again:

- CCSCCNc1nc2c(s1)c(C)nn2C | T. brucei: -4.314%; Toxoplasma: -2.185%; Leishmania in macrophages: 16.96%
- O=C(O)C(F)(F)F.O=C(O)C(F)(F)F.[H][C@@]12OCCN(Cc3c(C)noc3C)[C@@]1([H])CC[C@H]2Oc1ccccn1 | T. brucei: -5.061%; Toxoplasma: -3.662%; Leishmania in macrophages: -10.15%
- COc1cccc(C2CCCN2C(=O)c2cc3c(nc2OC)CCC3)c1 (stereo not given) | T. brucei: 5.269%; Toxoplasma: 0.2887%; Leishmania in macrophages: 16.06%